PubChem BioAssay AID602196 | INSERM, 2012

Screen: 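Modifiers of cisplatin sensitivity in A549 cells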
Cells: human A549 lung cancer cells
Reagents: siRNA pair against human genes
Timing: 48 h transfection before cisplatin; time from cisplatin to read-out not stated
Treatment: cisplatin at a dose killing half of control-siRNA cells; exact dose and duration not given
Read-out: 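Cisplatin cell death as a shift from the 50% death seen with control siRNA; siRNAs toxic or growth-blocking alone scored 0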
Direction: two-siRNA summed score (-2 to +2): higher = both siRNAs protect from cisplatin killing; -2 means both sensitise; mean protection from cisplatin (shift in death) and protection from cisplatin (shift in death), siRNA C and protection from cisplatin (shift in death), siRNA D: higher = protection from cisplatin killing
Call rule: 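siRNAs harmful alone (LDH or WST-1) get 0; others get +1 for less and -1 for more cisplatin killing; genes are active when the two siRNAs give the same sign, summing to ±2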
Calls: active = both siRNAs shift cisplatin killing the same way; inactive = no consistent shift, or siRNA harmful alone
Here is one part, drawn at random, of about 23,000 deposited reagents. Of all reagents, 455 (2%) were called active. 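Active includes both protection and sensitisation; some change values fall well beyond the stated -50 to +50 range.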 No sequences are given here. The record does not give: the amount of reagent.

| gene symbol | two-siRNA summed score (-2 to +2) | mean protection from cisplatin (shift in death) (%) | protection from cisplatin (shift in death), siRNA C (%) | protection from cisplatin (shift in death), siRNA D (%) | Call |
| --- | --- | --- | --- | --- | --- |
| INKA1 | 0 | 2.2 | 6.5 | -2.2 | inactive |
| ZNF467 | 0 | -3.8 | 6.1 | -13.8 | inactive |
| ATF7IP | 0 | 1.3 | 5.6 | -3 | inactive |
| LOC400618 | 0 | 7.1 | 8.6 | 5.6 | inactive |
| ACOT4 | 0 | -1.9 | -5 | 1.2 | inactive |
| POMK | 0 | 4.2 | 15.8 | -7.4 | inactive |
| INMT | 1 | 20.3 | 24.9 | 15.7 | inactive |
| SFPQ | 1 | 5.6 | 0.3 | 10.9 | inactive |
| SPRY2 | 0 | 2 | 9.7 | -5.6 | inactive |
| IL17RB | 0 | -6.6 | -1.3 | -11.9 | inactive |
| LOC391528 | 1 | 36.8 | 20.2 | 53.5 | inactive |
| PTPN6 | 0 | 17.2 | 7.9 | 26.6 | inactive |
| ARRDC1 | 0 | 1.6 | 15.9 | -12.7 | inactive |
| RNF220 | 0 | -15.8 | -20.1 | -11.5 | inactive |
| OR8G1 | 1 | 4.5 | 13.6 | -4.5 | inactive |
| SKIC3 | 1 | 14.5 | 14.6 | 14.4 | inactive |
| LUC7L | 0 | -1.1 | -1.1 | -1.1 | inactive |
| NDUFV2 | -1 | -14.1 | -9.2 | -18.9 | inactive |
| LOC400778 | 0 | -7.3 | -19.9 | 5.3 | inactive |
| RIMKLB | 0 | 4.6 | 22.2 | -12.9 | inactive |
| METTL27 | 0 | 2.5 | 15.5 | -10.4 | inactive |
| SENP1 | 0 | 11.2 | 8.4 | 14.1 | inactive |
| SLMAP | 1 | 5.5 | 2.6 | 8.3 | inactive |
| HBQ1 | 0 | 18.5 | 13.6 | 23.5 | inactive |
| BIN3-IT1 | 0 | -4.8 | -13 | 3.4 | inactive |
| GADL1 | 0 | 3.9 | 9.1 | -1.3 | inactive |
| ING2-DT | 1 | 20.2 | 14.3 | 26.1 | inactive |
| NBPF5P | 0 | 15.3 | 21.6 | 9.1 | inactive |
| TMIE | 0 | 7.6 | 6.9 | 8.3 | inactive |
| LOC390423 | 0 | 35.8 | 22.1 | 49.5 | inactive |
| ERF | 0 | 1 | -0.9 | 2.8 | inactive |
| HSPA8 | 0 | -3.1 | -9.8 | 3.5 | inactive |
| PICALM | 0 | 4.2 | 2.1 | 6.3 | inactive |
| GMPS | 0 | 0.7 | 1.5 | -0.2 | inactive |

3 entries from above, reduced to “two-siRNA summed score (-2 to +2)”.
ZNF467: 0
ATF7IP: 0
LOC400618: 0

Next reagents follow.
| gene symbol | two-siRNA summed score (-2 to +2) | mean protection from cisplatin (shift in death) (%) | protection from cisplatin (shift in death), siRNA C (%) | protection from cisplatin (shift in death), siRNA D (%) | Call |
| --- | --- | --- | --- | --- | --- |
| FYRD1 | 0 | 6.3 | 10.3 | 2.4 | inactive |
| KMT2E | 0 | 1.8 | 7.5 | -4 | inactive |
| TFPI | 0 | 4 | 12.5 | -4.5 | inactive |
| ZNF516-DT | 0 | 4.9 | 6.7 | 3 | inactive |
| TMEM47 | 0 | 8.6 | 7.8 | 9.5 | inactive |
| MYO1C | -1 | -0.9 | -20.6 | 18.8 | inactive |
| TAPT1-AS1 | 1 | 13.7 | 17 | 10.4 | inactive |
| LOC200292 | 0 | 6.9 | -6 | 19.9 | inactive |
| HLF | 1 | 5.7 | -1.9 | 13.3 | inactive |
| APIP | 0 | 11.4 | 24.6 | -1.9 | inactive |
| KLHL36 | 0 | 9.9 | 17.4 | 2.4 | inactive |
| THOC7 | 0 | 0.1 | 2.6 | -2.4 | inactive |
| PLXND1 | 0 | -0.2 | -3.1 | 2.7 | inactive |
| LY6K | 0 | 6.4 | 10 | 2.8 | inactive |
| WDR47 | 1 | 4.7 | -2.3 | 11.6 | inactive |
| LOC440594 | 0 | 23.1 | 30 | 16.1 | inactive |
| APBA3 | 0 | -4.1 | -9.8 | 1.5 | inactive |
| SNRPC | -1 | -2.4 | -14.1 | 9.3 | inactive |
| RPL22 | 1 | 16.3 | 25 | 7.5 | inactive |
| PRKCQ | -1 | -7.3 | -14.6 | 0 | inactive |
| OR52E8 | 0 | 18.3 | 15.1 | 21.6 | inactive |
| CYP17A1 | 0 | -0.7 | 0.2 | -1.5 | inactive |
| GTSF1 | 0 | 6.7 | 3.2 | 10.2 | inactive |
